The record followed here is article PMC7819943, “Rice protein-binding microarrays: a tool to detect cis-acting elements near promoter regions in rice”.

This is one part of the list.

The target in this assay is T1, OsSMF1 (Oryza sativa, UniProt Q6ZLB0 1-436).
T1 sequence: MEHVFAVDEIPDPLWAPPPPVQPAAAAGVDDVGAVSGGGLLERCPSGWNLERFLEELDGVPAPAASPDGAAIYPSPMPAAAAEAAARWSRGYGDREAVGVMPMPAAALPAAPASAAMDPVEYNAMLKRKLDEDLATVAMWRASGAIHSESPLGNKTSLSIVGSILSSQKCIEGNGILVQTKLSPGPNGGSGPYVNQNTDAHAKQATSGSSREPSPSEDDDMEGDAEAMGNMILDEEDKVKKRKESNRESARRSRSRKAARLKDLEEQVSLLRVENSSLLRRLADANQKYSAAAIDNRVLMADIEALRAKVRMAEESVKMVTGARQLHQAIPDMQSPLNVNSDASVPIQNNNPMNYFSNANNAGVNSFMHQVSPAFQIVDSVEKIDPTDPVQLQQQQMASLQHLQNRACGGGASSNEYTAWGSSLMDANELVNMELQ
The assay can be described thus: protein-binding microarray (RPBM); PBS, 2% BSA, 51.3 ng/ul salmon testes DNA, 50 uM zinc acetate, 200 nM TF, 25 C, 1 h; high values mean tight binding. The note with it: protein: recombinant; tags: N-terminal polyhistidine and DsRed monomer fusion (pET32a); chain copies: 2; label: CyDye5-dUTP incorporated in the synthesized complementary strand; 3' TTTTT single-stranded linker to array surface; dsDNA, one strand shown. In outline: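 Using Ni–NTA, transcription factors fused N-terminally to polyhistidine and DsRed were purified after expression in E. coli BL21-CodonPlus. These were incubated at 200 nM with a blocked, double-stranded custom Agilent array for 1 h at 25 °C in a buffer containing 50 µM zinc acetate, and the array was washed. The binding signal is per-feature fluorescence intensity (arbitrary units) on an Axon 4000B scanner.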
With “GTCGAGCGGCAGCAGCAGCATGACTCTGACTCCGACGGCACGGAGTCACCTAGTGCAG”, the binding signal is 3160 fluorescence intensity (a.u.).

On to “TGCGCCATGTTGTCATGGCGGGATTATCCCCATTGACGCCCGGAGTCACCTAGTGCAG”, for which the binding signal was 4040 fluorescence intensity (a.u.).

For “TTGGATTGTGTGCTGGTTGCCTCCGATGGTCGCAAGGGCCCGGAGTCACCTAGTGCAG”, the binding signal was 3250 fluorescence intensity (a.u.).

For the sequence “ACATGTGTTCACGCGTGTGTATCTTCTACTCCCTCCGTTTCGGAGTCACCTAGTGCAG”, the binding signal was 43200 fluorescence intensity (a.u.).

In the case of “ACGCAGGTGACGTGTCTCCCTGTGCCTACCAAATGTGGGCCGGAGTCACCTAGTGCAG”, the binding signal is 15200 fluorescence intensity (a.u.).

On to “CTCGCCATCTCCAGCTCCGACCCCTGGCCCTTCTCCCTTTCGGAGTCACCTAGTGCAG”, for which the binding signal was 3220 fluorescence intensity (a.u.).

For the sequence “CTCGGGAGCCCGGTCATCACCTACTCCGCCCGCCGCCACCCGGAGTCACCTAGTGCAG”, the binding signal was 4700 fluorescence intensity (a.u.).

Consider “GTTTTAAGGGTATTTTGGGTATTTCTTAAAGAAAAGCCCACGGAGTCACCTAGTGCAG”, for which the binding signal is 15300 fluorescence intensity (a.u.).

For the sequence “ATTAAAATCACGTGACTCTCTCTTGCGTGGAAGCAACACACGGAGTCACCTAGTGCAG”, the binding signal was 5000 fluorescence intensity (a.u.).

Take “AAGCTTAATTTGTCGTTAAGCACCTGCAGAGCTCGCATGACGGAGTCACCTAGTGCAG”: the binding signal is 4560 fluorescence intensity (a.u.).

In the case of “TTGCTAGCATTAGATAGGAACCTGCTGACTGGACCACTACCGGAGTCACCTAGTGCAG”, the binding signal is 11600 fluorescence intensity (a.u.).

As for “CGTCTCCGCCGCCACGTCGCCGGCCGCCGGACCTCCTCTCCGGAGTCACCTAGTGCAG”, the binding signal was 8900 fluorescence intensity (a.u.).

For “ACCGGCACTTGCTTCACAAGTGACATGTAAAAGGAGGGTGCGGAGTCACCTAGTGCAG”, the binding signal is 3610 fluorescence intensity (a.u.).

Consider “CCTATTCCATTGTTCTTTGGTTTGCTGGTGTTATTCCCCGCGGAGTCACCTAGTGCAG”, for which the binding signal was 3630 fluorescence intensity (a.u.).

For “TGCTTAAGCTTTGTTCTGTGAAACCAGGGCGCCAACGGGGCGGAGTCACCTAGTGCAG”, the binding signal is 3450 fluorescence intensity (a.u.).

Take “CGTTTCTTTAGAAGTGCACACATGACACATGTGTCGGGTCCGGAGTCACCTAGTGCAG”: the binding signal is 3930 fluorescence intensity (a.u.).

On to “GTACTGATCTCTATGGCTAGCCAGCTGGCTCGACCTGGTTCGGAGTCACCTAGTGCAG”, for which the binding signal was 3630 fluorescence intensity (a.u.).

For “AGCGGTACAAGGTGGAGTGCCAGCGGCTCGCCGGCTCGGGCGGAGTCACCTAGTGCAG”, the binding signal was 28200 fluorescence intensity (a.u.).

“TCACATCAACTAGATTATTAAGAACAAATTGATTAATATTCGGAGTCACCTAGTGCAG”: the binding signal was 26900 fluorescence intensity (a.u.).

Consider “TACTTTATCCGCGGCGGGTAGCTGGGGAGGGAGGGGAGGCCGGAGTCACCTAGTGCAG”, for which the binding signal was 5170 fluorescence intensity (a.u.).

In the case of “AGGAGCTGATTGGGCCATTTTCATCACACGTCACATCGGCCGGAGTCACCTAGTGCAG”, the binding signal was 10000 fluorescence intensity (a.u.).

As to “AGGACCACCGCGATGGTCGCGCTGTCAGCGGCGAGGATGCCGGAGTCACCTAGTGCAG”, the binding signal was 5360 fluorescence intensity (a.u.).

Regarding “GGCGCGCAGAAATCAGGAGCGATGAGTTGGGAAAACTGGGCGGAGTCACCTAGTGCAG”, the binding signal is 3340 fluorescence intensity (a.u.).

With “CTGGTTGTGTGGGCGGAAGTTGGCTATGCTGGCGCATGGGCGGAGTCACCTAGTGCAG”, the binding signal is 3420 fluorescence intensity (a.u.).

Consider “CCGTGTTAATTACGGACAGAATAACCTCCATATACGTGGTCGGAGTCACCTAGTGCAG”, for which the binding signal is 3580 fluorescence intensity (a.u.).

Turning to “GTGTGGCAAGAGTTTCGCCACGTCAGACATGATGGTGTGGCGGAGTCACCTAGTGCAG”, the binding signal is 21200 fluorescence intensity (a.u.).

Turning to “CCTGCCAGGGGAGCAACCAAAGCCGCCACGCGCCCACGCTCGGAGTCACCTAGTGCAG”, the binding signal is 3290 fluorescence intensity (a.u.).

Take “GGTAGCAACGCGAGAGGCCGTGGTCCGTCACGGAGTGGCGCGGAGTCACCTAGTGCAG”: the binding signal is 3310 fluorescence intensity (a.u.).

Regarding “ATGCTAGAAAGTCTTATAACCTGAAACGGAGGTAGTAGGACGGAGTCACCTAGTGCAG”, the binding signal is 65000 fluorescence intensity (a.u.).

“CGGTCAAACCATCCACGCCCGTACGTGCGTAGCCAAACTGCGGAGTCACCTAGTGCAG”: the binding signal is 3600 fluorescence intensity (a.u.).

With “TGTCATAAATTGTACCGACATGATACACATGTCCGATACTCGGAGTCACCTAGTGCAG”, the binding signal was 39400 fluorescence intensity (a.u.).

Consider “TCGAGAGGTGGGGAGGGGAGGGGAGCAGAGGGCGGCATCGCGGAGTCACCTAGTGCAG”, for which the binding signal was 5110 fluorescence intensity (a.u.).

Turning to “TTAAGCCAGGTCATCTTTGTTAGCCCTTAGATGAATGGTCCGGAGTCACCTAGTGCAG”, the binding signal is 31300 fluorescence intensity (a.u.).

Consider “ATTTAGTTGATATGACATGTAAGTGCACTGTAATTTTGATCGGAGTCACCTAGTGCAG”, for which the binding signal is 3750 fluorescence intensity (a.u.).

For the sequence “TGCAAGTATATTCCGTTCATTGCCAGCTCAAAACCTCTCTCGGAGTCACCTAGTGCAG”, the binding signal was 3430 fluorescence intensity (a.u.).

In the case of “GTCGGAGACACCGCTCTGGCGTCCGGAGGAATCGATGAGGCGGAGTCACCTAGTGCAG”, the binding signal is 12100 fluorescence intensity (a.u.).

With “TCGTCAGAAGATGAGTCAGAGGATGATCTGTTGTTCAGTACGGAGTCACCTAGTGCAG”, the binding signal is 7090 fluorescence intensity (a.u.).

As for “CTGCGGCTCCCGCCGGAACCAACGCCATGGTGTCAGATCACGGAGTCACCTAGTGCAG”, the binding signal is 3850 fluorescence intensity (a.u.).

As to “TAGGGTGAAGATTTCTGGTTTTGTATTTAAGGGACCTAAACGGAGTCACCTAGTGCAG”, the binding signal is 7690 fluorescence intensity (a.u.).

As to “TTCCTTTTCTGCGTCACTGGTAGTTACAGTATTTTGGCTACGGAGTCACCTAGTGCAG”, the binding signal was 7780 fluorescence intensity (a.u.).

For “CCGCCTCCGCGAGTCATCGTCTCTCCAAAGCGAAGCAACCCGGAGTCACCTAGTGCAG”, the binding signal was 3340 fluorescence intensity (a.u.).

For “TATTTTATATTAGTGTTCAAACGTTCGATGTGACATGTGTCGGAGTCACCTAGTGCAG”, the binding signal was 3930 fluorescence intensity (a.u.).
